Inconclusive results, whose numbers are uncertain, are shown with a selection of clear calls. A potency beside an inconclusive call is a rough fit, not a confirmed value. The source made the active and inactive calls. How the source made its calls: active means hit-call score of the fitted dose curve at least 0.9, where 1 is the maximum; inconclusive means response in the unintended direction; inactive means score below 0.9.
What was measured:
[1] = read-out: xenobiotic metabolism (CYP1A2), CYP1A2 (gene 1544); assay: CLD_CYP1A2_6hr: CellzDirect (CLD) Gene Expression Assay for xenobiotic metabolism (CYP1A2) at 6 hours (AID 2283663);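 further: potency is for induction meaning a rise in mRNA above DMSO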
How it was run: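 Primary human hepatocytes from two donor preparations, dosed daily with multiple concentrations in 0.2% DMSO and harvested at 6 h. CYP1A2 mRNA induction measured by chemiluminescent qNPA, gain of signal fitted against DMSO; cytotoxicity flagged morphologically.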

Amino acid sequences for entries named in this document (tags omitted). A change or cut given only in a name is not applied to a line headed by its entry.
UniProt P33261, whole entry, looked up: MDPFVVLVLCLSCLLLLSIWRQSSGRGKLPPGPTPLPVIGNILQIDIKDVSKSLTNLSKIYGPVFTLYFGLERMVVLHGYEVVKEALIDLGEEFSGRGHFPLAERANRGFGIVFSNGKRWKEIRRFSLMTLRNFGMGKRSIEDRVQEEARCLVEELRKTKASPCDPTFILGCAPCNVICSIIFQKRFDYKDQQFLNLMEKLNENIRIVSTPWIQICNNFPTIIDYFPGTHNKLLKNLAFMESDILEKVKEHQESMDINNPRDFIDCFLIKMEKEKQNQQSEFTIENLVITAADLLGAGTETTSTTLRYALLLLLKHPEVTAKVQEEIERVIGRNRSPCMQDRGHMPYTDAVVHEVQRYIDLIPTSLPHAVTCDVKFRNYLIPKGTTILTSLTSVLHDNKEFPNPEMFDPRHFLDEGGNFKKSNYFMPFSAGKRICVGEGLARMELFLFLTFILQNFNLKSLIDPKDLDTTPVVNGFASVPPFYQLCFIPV
UniProt P04406: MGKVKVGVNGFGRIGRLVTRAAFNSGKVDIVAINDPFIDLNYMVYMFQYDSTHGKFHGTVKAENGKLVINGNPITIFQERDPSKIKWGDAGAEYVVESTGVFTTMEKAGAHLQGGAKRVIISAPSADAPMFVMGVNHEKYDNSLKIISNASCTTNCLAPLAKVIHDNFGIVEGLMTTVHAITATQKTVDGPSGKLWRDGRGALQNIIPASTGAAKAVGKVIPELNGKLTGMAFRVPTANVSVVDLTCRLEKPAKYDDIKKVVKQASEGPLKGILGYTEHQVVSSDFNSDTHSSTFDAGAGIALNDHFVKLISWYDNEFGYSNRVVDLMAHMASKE
UniProt P08684, whole entry, looked up: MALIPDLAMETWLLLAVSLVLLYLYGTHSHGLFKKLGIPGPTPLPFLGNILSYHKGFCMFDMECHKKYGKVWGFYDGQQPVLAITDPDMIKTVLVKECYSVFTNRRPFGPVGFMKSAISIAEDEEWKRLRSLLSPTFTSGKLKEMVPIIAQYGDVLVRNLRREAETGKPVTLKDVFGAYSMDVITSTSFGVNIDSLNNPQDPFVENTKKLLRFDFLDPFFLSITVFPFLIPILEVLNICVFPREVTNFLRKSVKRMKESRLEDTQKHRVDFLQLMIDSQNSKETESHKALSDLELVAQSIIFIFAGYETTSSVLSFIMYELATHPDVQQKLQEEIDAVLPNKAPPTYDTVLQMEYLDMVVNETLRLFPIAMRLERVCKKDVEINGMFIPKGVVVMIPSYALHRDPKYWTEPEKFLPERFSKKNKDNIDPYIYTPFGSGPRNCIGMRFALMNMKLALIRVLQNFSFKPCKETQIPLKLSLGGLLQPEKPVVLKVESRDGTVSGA
UniProt P20813: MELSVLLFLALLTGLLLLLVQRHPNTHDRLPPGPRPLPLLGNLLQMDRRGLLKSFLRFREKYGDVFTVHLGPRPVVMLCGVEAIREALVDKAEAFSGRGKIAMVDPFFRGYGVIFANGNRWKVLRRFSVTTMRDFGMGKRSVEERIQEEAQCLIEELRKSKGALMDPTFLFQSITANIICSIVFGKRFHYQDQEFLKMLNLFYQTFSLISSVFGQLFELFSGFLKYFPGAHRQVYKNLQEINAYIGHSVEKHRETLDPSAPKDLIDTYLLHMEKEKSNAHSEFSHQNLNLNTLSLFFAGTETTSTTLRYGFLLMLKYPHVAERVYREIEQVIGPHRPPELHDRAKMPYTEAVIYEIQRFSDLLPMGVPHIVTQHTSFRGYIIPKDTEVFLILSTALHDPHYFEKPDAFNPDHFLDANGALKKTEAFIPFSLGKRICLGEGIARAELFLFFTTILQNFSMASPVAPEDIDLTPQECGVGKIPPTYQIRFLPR

[2] = read-out: xenobiotic metabolism (CYP2C9), CYP2C9 (gene 1559); assay: CLD_CYP2C9_6hr: CellzDirect (CLD) Gene Expression Assay for xenobiotic metabolism (CYP2C9) at 6 hours (AID 2283664)
How it was run: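 Primary human hepatocytes dosed daily with test chemicals at multiple concentrations; harvested at 6 h. CYP2C9 mRNA induction measured by qNPA chemiluminescence. Gain of signal fitted against 0.2% DMSO vehicle; cytotoxicity annotated from phase-contrast morphology.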

[3] = read-out: sulfotransferase (SULT2A), SULT2A1 (gene 6822); assay: CLD_SULT2A_6hr: CellzDirect (CLD) Gene Expression Assay for sulfotransferase (SULT2A) at 6 hours (AID 2283669);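 further: hits raise transcript level above the DMSO vehicle baseline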
How it was run: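 Primary human hepatocytes from two donor preparations were dosed daily with chemicals or 0.2% DMSO and harvested at 6 h. Transcript induction read by qNPA chemiluminescence, fitted for gain of signal relative to DMSO; morphology-based cytotoxicity annotated.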

[4] = CLD_ACTIN_24hr: CellzDirect (CLD) Gene Expression Assay for Baseline Control (Actin) at 24 hours (AID 2283670)
How it was run: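 Primary human hepatocytes dosed over multiple concentrations with 0.2% DMSO vehicle; actin mRNA measured at 24 h by qNPA chemiluminescence. Background control endpoint, fitted as gain of signal versus DMSO.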

[5] = read-out: glucuronosyltransferase (UGT1A1), UGT1A1 (gene 54658); assay: CLD_UGT1A1_6hr: CellzDirect (CLD) Gene Expression Assay for glucuronosyltransferase (UGT1A1) at 6 hours (AID 2283672)
How it was run: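 Primary human hepatocytes from two donor preparations, dosed with fresh solutions in 0.2% DMSO, harvested at 6 h. UGT1A1 mRNA measured by qNPA chemiluminescence; induction fitted upward versus DMSO.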

[6] = read-out: ABC Transporter (ABCB11), ABCB11 (gene 8647); assay: CLD_ABCB11_6hr: CellzDirect (CLD) Gene Expression Assay for ABC Transporter (ABCB11) at 6 hours (AID 2283675);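 further: hits raise ABCB11 mRNA level so AC50 marks induction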
How it was run: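 Human primary hepatocytes (two donor preparations) given fresh chemical daily at multiple concentrations, vehicle 0.2% DMSO. ABCB11 mRNA induction measured 6 h after dosing by qNPA chemiluminescence versus DMSO; cytotoxicity annotated from morphology.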

[7] = read-out: Cytochrome P450 2C19 (Homo sapiens) (UniProt P33261); assay: CLD_CYP2C19_6hr: CellzDirect (CLD) Gene Expression Assay for xenobiotic metabolism (CYP2C19) at 6 hours (AID 2283678)
How it was run: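 Primary human hepatocytes from two donor preparations were dosed daily, with 0.2% DMSO as vehicle, and harvested 6 h after dosing. CYP2C19 mRNA induction was measured by qNPA chemiluminescence and fitted as gain of signal against DMSO.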

[8] = read-out: Glyceraldehyde-3-phosphate dehydrogenase (Homo sapiens) (UniProt P04406); assay: CLD_GAPDH_6hr: CellzDirect (CLD) Gene Expression Assay for Baseline Control (Glyceraldehyde 3-phosphate dehydrogenase) at 6 hours (AID 2283681)
How it was run: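 Primary human hepatocytes from two donor preparations, dosed at multiple concentrations with 0.2% DMSO vehicle; GAPDH mRNA measured 6 h after dosing by chemiluminescent quantitative nuclease protection assay (qNPA) on denatured lysates. Serves as background control; cytotoxicity annotated by morphology.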

[9] = read-out: HMG-CoA synthase (HMGCS2), HMGCS2 (gene 3158); assay: CLD_HMGCS2_6hr: CellzDirect (CLD) Gene Expression Assay for HMG-CoA synthase (HMGCS2) at 6 hours (AID 2283682);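 further: actives raise HMGCS2 transcript above the 0.2% DMSO vehicle baseline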
How it was run: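 Primary human hepatocytes dosed daily with fresh chemical, 0.2% DMSO vehicle; HMGCS2 mRNA measured at 6 h by qNPA chemiluminescence. Gain of signal fitted against DMSO; cytotoxicity flagged from phase-contrast morphology.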

[10] = read-out: organic anion transporter (SLCO1B1), SLCO1B1 (gene 10599); assay: CLD_SLCO1B1_6hr: CellzDirect (CLD) Gene Expression Assay for organic anion transporter (SLCO1B1) at 6 hours (AID 2283668);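 further: active means mRNA induction above DMSO baseline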
How it was run: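 Primary human hepatocytes dosed daily with test chemicals (multiple concentrations) in 0.2% DMSO vehicle; harvested at 6 h. SLCO1B1 mRNA quantified by qNPA chemiluminescence, fitted as gain-of-signal versus DMSO; cytotoxicity from phase-contrast morphology flagged alongside.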

[11] = read-out: xenobiotic metabolism (CYP1A1), CYP1A1 (gene 1543); assay: CLD_CYP1A1_24hr: CellzDirect (CLD) Gene Expression Assay for xenobiotic metabolism (CYP1A1) at 24 hours (AID 2283673);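 further: CYP1A1 mRNA level by quantitative nuclease protection with chemiluminescence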
How it was run: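 Primary human hepatocytes dosed daily with fresh solutions in 0.2% DMSO vehicle. mRNA measured at 24 h by quantitative nuclease protection assay with chemiluminescence; gain-of-signal fit versus DMSO, with morphology-based cytotoxicity flags.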

[12] = read-out: Cytochrome P450 3A4 (Homo sapiens) (UniProt P08684); assay: CLD_CYP3A4_6hr: CellzDirect (CLD) Gene Expression Assay for xenobiotic metabolism (CYP3A4) at 6 hours (AID 2283680)
How it was run: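 Primary human hepatocytes (two donor preparations) dosed; CYP3A4 mRNA harvested at 6 h and quantified by qNPA chemiluminescence. Gain of signal fitted against 0.2% DMSO vehicle; cytotoxicity flagged by phase-contrast morphology.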

[13] = read-out: xenobiotic metabolism (CYP1A2), CYP1A2 (gene 1544); assay: CLD_CYP1A2_24hr: CellzDirect (CLD) Gene Expression Assay for xenobiotic metabolism (CYP1A2) at 24 hours (AID 2283683)
How it was run: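 Primary human hepatocytes from two donor preparations dosed daily with multiple concentrations of chemical, 0.2% DMSO vehicle. CYP1A2 mRNA at 24 h quantified by qNPA chemiluminescence; gain of signal analyzed relative to DMSO. Cytotoxicity flagged by phase-contrast morphology.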

[14] = read-out: Cytochrome P450 2B6 (Homo sapiens) (UniProt P20813); assay: CLD_CYP2B6_6hr: CellzDirect (CLD) Gene Expression Assay for xenobiotic metabolism (CYP2B6) at 6 hours (AID 2283677);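 further: actives raise CYP2B6 transcript above DMSO baseline so AC50 marks an inducer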
How it was run: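 Primary human hepatocytes dosed with chemicals at multiple concentrations, vehicle 0.2% DMSO; CYP2B6 mRNA induction measured 6 h after dosing by quantitative nuclease protection assay with chemiluminescence, gain of signal fitted relative to DMSO.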

[15] = CLD_ACTIN_6hr: CellzDirect (CLD) Gene Expression Assay for Baseline Control (Actin) at 6 hours (AID 2283676)
How it was run: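 Primary human hepatocytes dosed with fresh chemical solutions (vehicle 0.2% DMSO), harvested at 6 h. Actin mRNA quantified by quantitative nuclease protection assay with chemiluminescent read-out, as background control relative to DMSO.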

[16] = read-out: alkyl and aryl transferase (GSTA2), GSTA2 (gene 2939); assay: CLD_GSTA2_6hr: CellzDirect (CLD) Gene Expression Assay for alkyl and aryl transferase (GSTA2) at 6 hours (AID 2283666)
How it was run: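 Primary human hepatocytes from two donor preparations were dosed daily with fresh compound at multiple concentrations, 0.2% DMSO vehicle. GSTA2 mRNA was measured at 6 hours by qNPA chemiluminescence; induction fitted relative to DMSO, with cytotoxicity flagged morphologically.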

[17] = read-out: ABC Transporter (ABCB1), ABCB1 (gene 5243); assay: CLD_ABCB1_24hr: CellzDirect (CLD) Gene Expression Assay for ABC Transporter (ABCB1) at 24 hours (AID 2283684);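 further: potency for increase in ABCB1 mRNA relative to DMSO vehicle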
How it was run: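 Primary human hepatocytes, two donor preparations, dosed daily with fresh solutions; vehicle 0.2% DMSO; harvested at 24 h. ABCB1 mRNA measured by quantitative nuclease protection assay (chemiluminescence); morphology-based cytotoxicity annotated.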

Measured: AC50

COc1nn(CSP(=S)(OC)OC)c(=O)s1
inactive: [5] | [7]
inconclusive: [2] 0.00251 µM | [3] 20 µM | [4] 5.18 µM | [6] 0.0004 µM | [8] 20 µM | [9] 1.89 µM
active: [1] 2.89 µM

O=S1OCC2C(CO1)C1(Cl)C(Cl)=C(Cl)C2(Cl)C1(Cl)Cl (centres undefined)
inconclusive: [1] 20 µM | [2] 3.09 µM | [7] 3.97 µM | [13] 20 µM
inactive: [10] | [4] | [11]
active: [12] 9.06 µM

CCC(C)(C)C(=O)OC1=C(c2ccc(Cl)cc2Cl)C(=O)OC12CCCCC2
inactive: [14] | [8]
inconclusive: [1] 0.128 µM | [2] 0.0004 µM | [10] 20 µM | [3] 0.00494 µM | [4] 20 µM | [9] 0.027 µM

O=C1c2ccccc2C(=O)N1SC(Cl)(Cl)Cl
inconclusive: [1] 20 µM | [2] 0.0004 µM | [3] 4.01 µM | [5] 20 µM | [15] 20 µM | [14] 20 µM | [12] 0.068 µM | [13] 4.8 µM
inactive: [4] | [8]

Oc1ccccc1-c1ccccc1
inconclusive: [1] 0.000289 µM | [3] 1.89 µM | [9] 0.0004 µM | [17] 20 µM
inactive: [2] | [16] | [4]

CC1(C(=O)Nc2ccc(O)c(Cl)c2Cl)CCCCC1
inconclusive: [1] 20 µM | [2] 0.0004 µM | [10] 0.0105 µM | [3] 0.00806 µM | [11] 0.957 µM | [13] 20 µM
inactive: [4] | [9]

CO/N=C(/C1=NOCCO1)c1ccccc1Oc1ncnc(Oc2ccccc2Cl)c1F
inconclusive: [1] 33 µM | [5] 20 µM | [14] 37.7 µM | [9] 20 µM
inactive: [2] | [10] | [6]

CC[C@H](C)[C@H]1O[C@]2(C=C[C@@H]1C)C[C@@H]1C[C@@H](C/C=C(\C)[C@@H](O[C@H]3C[C@H](OC)[C@@H](O[C@H]4C[C@H](OC)[C@@H](O)[C@H](C)O4)[C@H](C)O3)[C@@H](C)/C=C/C=C3\CO[C@@H]4[C@H](O)C(C)=C[C@@H](C(=O)O1)[C@]34O)O2 (tested in a mixture with another compound)
inactive: [10] | [14]
active: [17] 5.84 µM
inconclusive: [1] 4.38 µM | [2] 0.000744 µM | [16] 3.97 µM | [5] 5.96 µM

Source: PubChem BioAssay (EPA / NIEHS)
